Reference: PMC5068538
No constants are given. Whether binding was seen depends on the method and setting. For some of these results: Binding seen in cells or lysates may run through a third protein. Some binding calls cover weakened binding; strength is not graded here. For some of these results: Tags and fused reporters may be left off the sequences shown.

By UniProt entry, the sequences of proteins in these tests, tags left out. Where a name states a change or a piece, a line headed by the entry shows the natural chain unless it says otherwise.
UniProt Q12824: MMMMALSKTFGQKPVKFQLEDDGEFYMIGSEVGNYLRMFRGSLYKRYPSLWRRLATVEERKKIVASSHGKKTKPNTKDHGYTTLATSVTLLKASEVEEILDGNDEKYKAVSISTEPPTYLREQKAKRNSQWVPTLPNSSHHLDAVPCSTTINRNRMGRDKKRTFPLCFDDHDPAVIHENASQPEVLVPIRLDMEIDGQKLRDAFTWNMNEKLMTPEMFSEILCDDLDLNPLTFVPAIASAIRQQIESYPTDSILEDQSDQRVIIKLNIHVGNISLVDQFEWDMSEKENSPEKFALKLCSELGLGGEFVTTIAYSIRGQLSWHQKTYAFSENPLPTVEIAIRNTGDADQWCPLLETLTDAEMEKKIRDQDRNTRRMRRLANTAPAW

T1: GST-SAP18 (UniProt O00422)
T1 sequence: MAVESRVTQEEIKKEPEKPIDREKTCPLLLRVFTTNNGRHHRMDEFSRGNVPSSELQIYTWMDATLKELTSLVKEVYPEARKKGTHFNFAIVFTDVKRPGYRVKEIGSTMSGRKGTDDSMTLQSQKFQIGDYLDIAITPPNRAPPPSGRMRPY

B1: GAL4 activation domain fused to SAP18 (GAL4AC-SAP18) (protein, UniProt O00422 1-153)
chain: T1 sequence

Experiments:
[1] = target: LexA-INI1 fusion protein (wild-type INI1/hSNF5) (human) (UniProt Q12824); assay: two-hybrid; yeast; LexA DNA-binding domain fusions of INI1 or SID-INI1 mutants against GAL4 activation domain fusions; LacZ reporter, X-Gal assay, strength by the time of appearance of the blue color
[2] = target: LexA-SID-INI1-D (clone D6, N152S R242I) (human) (UniProt Q12824); assay: as above
[3] = target: T1, GST-SAP18; assay: pull-down; 6His-tagged INI1 or SID-INI1 mutants expressed in bacteria, GST-SAP18 immobilized onto glutathione agarose beads; bound protein detected by immunoblot with anti-6His antibody

Molecule	binding [1]	binding [2]	binding [3]
GAL4 activation domain fused to INI1 (GAL4AC-INI1) (from UniProt Q12824 1-385)	binds	binds	–
6His-INI1 (wild type) (from UniProt Q12824 1-385)	–	–	binds
B1	binds	–	–
